Drawing on paper PMC2993708, this text covers binding for two substances.

Amino acid sequences for entries named in this document (tags omitted).
UniProt Q8K202: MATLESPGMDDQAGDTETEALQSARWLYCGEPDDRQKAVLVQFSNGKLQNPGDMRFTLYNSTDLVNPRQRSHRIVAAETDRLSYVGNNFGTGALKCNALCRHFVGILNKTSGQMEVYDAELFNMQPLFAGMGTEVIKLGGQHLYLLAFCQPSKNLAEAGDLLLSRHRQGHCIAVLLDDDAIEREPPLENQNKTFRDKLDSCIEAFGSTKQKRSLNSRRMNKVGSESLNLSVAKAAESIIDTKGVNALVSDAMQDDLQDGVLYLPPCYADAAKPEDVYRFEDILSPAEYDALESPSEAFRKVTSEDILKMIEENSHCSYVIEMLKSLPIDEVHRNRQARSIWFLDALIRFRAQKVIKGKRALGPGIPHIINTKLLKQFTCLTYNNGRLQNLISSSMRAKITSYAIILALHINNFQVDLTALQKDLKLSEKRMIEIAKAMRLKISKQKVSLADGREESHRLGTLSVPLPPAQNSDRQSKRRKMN
UniProt O35134: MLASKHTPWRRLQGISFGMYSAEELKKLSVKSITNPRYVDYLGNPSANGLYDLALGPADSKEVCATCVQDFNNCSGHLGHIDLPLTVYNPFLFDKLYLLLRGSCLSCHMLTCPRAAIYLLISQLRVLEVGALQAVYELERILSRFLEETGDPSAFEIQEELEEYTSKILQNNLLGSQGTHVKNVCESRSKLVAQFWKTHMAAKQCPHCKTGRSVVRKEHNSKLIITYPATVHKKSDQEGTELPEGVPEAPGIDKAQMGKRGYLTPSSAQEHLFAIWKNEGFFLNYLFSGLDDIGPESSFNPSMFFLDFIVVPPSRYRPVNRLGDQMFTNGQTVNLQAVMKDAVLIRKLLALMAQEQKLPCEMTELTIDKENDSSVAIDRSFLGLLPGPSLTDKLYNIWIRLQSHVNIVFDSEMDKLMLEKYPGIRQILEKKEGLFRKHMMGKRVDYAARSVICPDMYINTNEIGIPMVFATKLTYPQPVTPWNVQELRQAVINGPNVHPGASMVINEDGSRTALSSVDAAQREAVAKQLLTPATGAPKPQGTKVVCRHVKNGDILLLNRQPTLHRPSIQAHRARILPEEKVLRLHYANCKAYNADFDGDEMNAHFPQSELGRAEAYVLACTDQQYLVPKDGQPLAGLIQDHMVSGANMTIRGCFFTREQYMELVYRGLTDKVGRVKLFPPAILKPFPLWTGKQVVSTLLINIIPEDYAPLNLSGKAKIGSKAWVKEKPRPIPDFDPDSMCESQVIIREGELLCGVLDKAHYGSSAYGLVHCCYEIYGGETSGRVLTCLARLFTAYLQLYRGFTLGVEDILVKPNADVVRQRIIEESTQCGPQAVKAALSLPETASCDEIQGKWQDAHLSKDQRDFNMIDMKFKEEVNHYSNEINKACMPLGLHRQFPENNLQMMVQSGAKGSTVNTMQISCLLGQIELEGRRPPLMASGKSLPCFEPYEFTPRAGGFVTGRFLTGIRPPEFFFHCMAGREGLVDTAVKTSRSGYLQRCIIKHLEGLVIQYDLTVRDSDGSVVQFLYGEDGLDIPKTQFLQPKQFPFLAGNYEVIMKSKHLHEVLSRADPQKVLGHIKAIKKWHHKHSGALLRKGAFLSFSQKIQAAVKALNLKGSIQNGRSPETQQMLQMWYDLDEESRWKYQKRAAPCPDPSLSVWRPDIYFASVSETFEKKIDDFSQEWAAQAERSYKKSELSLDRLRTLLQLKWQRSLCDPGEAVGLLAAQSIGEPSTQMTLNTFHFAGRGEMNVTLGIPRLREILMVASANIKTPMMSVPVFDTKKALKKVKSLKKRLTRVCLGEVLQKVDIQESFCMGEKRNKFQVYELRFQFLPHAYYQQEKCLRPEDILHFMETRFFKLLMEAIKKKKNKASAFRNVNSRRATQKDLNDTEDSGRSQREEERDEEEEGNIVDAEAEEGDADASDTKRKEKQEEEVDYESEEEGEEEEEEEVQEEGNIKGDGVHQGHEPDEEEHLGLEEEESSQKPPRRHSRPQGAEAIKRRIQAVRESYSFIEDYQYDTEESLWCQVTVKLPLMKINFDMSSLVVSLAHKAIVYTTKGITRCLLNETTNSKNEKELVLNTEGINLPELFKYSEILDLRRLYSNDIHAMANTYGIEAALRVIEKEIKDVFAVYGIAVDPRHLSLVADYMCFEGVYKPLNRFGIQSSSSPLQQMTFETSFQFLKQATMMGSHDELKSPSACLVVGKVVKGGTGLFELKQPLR

The test has as its target T1, biotin tagged CTCF (CTCF-bio) (mouse) (UniProt Q61164).
T1 sequence (chain, biotinylated lysine in the C-terminal tag (by BirA)): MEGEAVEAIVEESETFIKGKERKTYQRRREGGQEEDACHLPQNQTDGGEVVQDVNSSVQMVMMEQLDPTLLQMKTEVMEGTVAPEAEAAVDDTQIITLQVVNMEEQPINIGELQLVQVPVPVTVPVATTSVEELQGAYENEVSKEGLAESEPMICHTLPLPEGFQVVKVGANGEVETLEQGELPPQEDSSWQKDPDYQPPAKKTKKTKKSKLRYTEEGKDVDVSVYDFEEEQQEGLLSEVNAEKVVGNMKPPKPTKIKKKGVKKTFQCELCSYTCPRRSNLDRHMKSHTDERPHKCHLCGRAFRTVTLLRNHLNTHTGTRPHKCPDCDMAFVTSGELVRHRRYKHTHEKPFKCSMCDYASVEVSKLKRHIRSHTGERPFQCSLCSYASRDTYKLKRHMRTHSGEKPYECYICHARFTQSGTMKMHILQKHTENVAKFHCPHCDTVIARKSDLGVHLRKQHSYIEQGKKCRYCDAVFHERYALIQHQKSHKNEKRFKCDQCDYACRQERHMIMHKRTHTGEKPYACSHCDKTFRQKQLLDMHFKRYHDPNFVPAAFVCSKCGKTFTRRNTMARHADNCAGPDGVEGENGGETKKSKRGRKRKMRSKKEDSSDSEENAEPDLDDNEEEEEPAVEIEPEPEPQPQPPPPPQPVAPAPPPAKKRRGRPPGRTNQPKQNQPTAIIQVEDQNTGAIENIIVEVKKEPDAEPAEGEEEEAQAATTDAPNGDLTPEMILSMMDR
Kind of test: affinity purification with mass spectrometry; CTCF-bio purified from ES cell nuclear extracts under mild conditions with streptavidin-coupled magnetic beads; Mascot score cut-off 60.

No constants are given. Whether binding was seen depends on the method and setting. Binding seen in cells or lysates may run through a third protein. Here binding means that the protein was enriched with, or labelled near, the bait; the list need not be complete. Tags and fused reporters may be left off the sequences shown.

For the substance PAF53 (from UniProt Q8K202 1-482), the binding entry is on record as “binds”. With “large subunit of RNA polymerase I (RPA194) (from UniProt O35134 1-1717)”, the binding result is “binds”.
